# About 220 (0.063%) of roughly 350,000 compounds were called active. Inconclusive results, whose numbers are uncertain, are shown with a selection of clear calls. Calls follow the shape of the dose curve; as a rule, active = well fitted activation curve with a large enough effect; inconclusive = small, poorly fitted or top-dose-only effect; inactive = no such curve, though single readings can be large or run the other way. Potencies of inconclusive entries are doubtful fits and often do not repeat.
# Assay: qHTS for Activators of Integrin-Mediated Alleviation for Muscular Dystrophy; also: nearly all actives have a fitted effect of over 60% in size;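 as to activation: 100% = response of the positive control SU9516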
# Details: alpha7betagal myoblasts, beta-gal FDG fluorescence, 48 h; activation: at 38.3 µM (top of the series)
# Procedure, shortened: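 Alpha7betagal+/- myoblasts (passage 13) were plated 16-24 hr, then exposed to compounds (1:260 dilution of DMSO stock) for 48 hours at 37C. After MPER lysis, β-galactosidase reporter activity was read as FDG fluorescence (ex 480/em 540) after 30 minutes.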
# Potency is read from the fitted curve at half-maximal effect.
SMILES,Potency,activation
COc1ccccc1NC(=O)Cn1nnc(-c2ccccc2NC(=O)c2cnccn2)n1,"inconclusive: 0.355 µM [activator, full curve, poor fit]",–
CSCC[C@H](NC(=O)Nc1cccc(Br)c1)C(=O)O,inactive,–
COc1ccc(C=CC(O)CCN2CCC3CCC(C3)C2)cc1 (stereo not given),inactive,–
CC1CCN(C(=O)COC(=O)c2ccc3c(c2)C(=O)N(Cc2ccco2)C3=O)CC1,"inconclusive: 3.16 µM [activator, full curve, poor fit]",–
Cc1ccc(S(=O)(=O)c2c(N)n(CCN3CCOCC3)c3nc4ccccc4nc23)cc1C,"inconclusive: 28.2 µM [activator, single point]",–
Cc1noc(C)c1C(=O)Nc1ccc(S(=O)(=O)N2CCCCC2)cc1,inactive,–
O=C1C=CC2(C=C1)O[C@H](Cc1ccccc1)[C@@H](Cc1ccccc1)O2,inactive,–
Cc1ccc(Nc2nc(N)c3ccccc3n2)cc1Cl,inactive,–
O=C(NCc1cccc(Cl)c1)c1ccc2ccccc2n1,–,inconclusive: 19.1% [activator]
CC(=O)c1cccc(NC(=O)c2ccccc2N(Cc2ccccc2)S(C)(=O)=O)c1,"inconclusive: 3.16 µM [activator, partial curve, poor fit]",–
COc1ccc(NC(=O)c2ccccc2)c([N+](=O)[O-])c1,"inconclusive: 3.55 µM [activator, single point]",–
CC(=O)OCC(=O)Nc1ccccc1OC(F)F,"inconclusive: 5.01 µM [activator, single point]",–
CC(=O)N1CCc2cc(S(=O)(=O)CCC(=O)Nc3cc(C)cc(C)c3)ccc21,"inconclusive: 5.01 µM [activator, single point]",–
Cc1cc(NS(=O)(=O)N(C)C)ccc1C(C)C,"inconclusive: 22.4 µM [activator, single point]",–
COc1ccc(/C(C)=N\Nc2nc(-c3ccccc3)cc(=O)[nH]2)cc1,"inconclusive: 7.08 µM [activator, partial curve, poor fit]",–
Oc1cccc2ccc(/C=C/c3cccs3)nc12,inactive,–
COc1cccc(S(=O)(=O)N2CCN(Cc3ccc4c(c3)OCO4)CC2)c1,"inconclusive: 5.01 µM [activator, single point]",–
O=C(Nc1ccc(Oc2ccccc2)cc1)C1CCCN(c2ncccn2)C1 (stereo not given),"inconclusive: 1 µM [activator, full curve, poor fit]",–
N#Cc1cc(N2CCCCC2)c([N+](=O)[O-])cc1C#N,"inconclusive: 0.501 µM [activator, full curve, poor fit]",–
Cc1cc(C)n2nc(C(=O)OCC(=O)N3CCC3)nc2n1,"inconclusive: 2 µM [activator, partial curve, poor fit]",–
CCOC(=O)CNC(=O)CSc1nc2nc(C)c(Br)cc2[nH]1,"inconclusive: 0.355 µM [activator, partial curve, poor fit]",–
COCCCC1CCN(C(=O)C2CCC(=O)N(Cc3cccc(F)c3)C2)CC1 (stereo not given),"inconclusive: 5.01 µM [activator, single point]",–
CC(=O)c1cc(C#N)c(N2CCCCC2)nc1C,"inconclusive: 3.55 µM [activator, single point]",–

# Part of the list above in another layout.
SMILES	Potency	activation
CC1CCN(C(=O)COC(=O)c2ccc3c(c2)C(=O)N(Cc2ccco2)C3=O)CC1	inconclusive: 3.16 µM [activator, full curve, poor fit]	–
COc1ccc(NC(=O)c2ccccc2)c([N+](=O)[O-])c1	inconclusive: 3.55 µM [activator, single point]	–

# Later entries.

SMILES,Potency,activation
Cc1ccc(NC(=O)CCNC(=O)c2ccc(Cl)cc2)cc1C,"inconclusive: 4.47 µM [activator, single point]",–
Cn1c(-c2ccccc2)cc(=O)n1-c1ccccc1,"inconclusive: 0.316 µM [activator, full curve, poor fit]",–
CC1CCc2c(nc3ncnn3c2Nc2ccc(OC(F)(F)F)cc2)C1 (stereo not given),"inconclusive: 3.55 µM [activator, partial curve, poor fit]",–
COc1cccc(C(O)c2cnc(C(C)C)n2C)c1 (stereo not given),inactive,–
COc1ccc2c(C)cc(N3CCN(c4ccc(F)cc4)CC3)nc2c1,"inconclusive: 1.26 µM [activator, partial curve, poor fit]",–
O=C(CCCCCNC(=O)N1CCn2c1nc1ccccc12)NCc1ccccc1,"inconclusive: 3.98 µM [activator, partial curve, poor fit]",–
CC(C)Cn1cnc2c1c(=O)n(CC(=O)NN)c(=O)n2Cc1ccccc1,"inconclusive: 1.78 µM [activator, partial curve, poor fit]",–
COc1ccc(CCNC(=O)c2cc(S(=O)(=O)N3CCOCC3)ccc2F)cc1,inactive,–
COc1cc(C(=O)Oc2ccccc2/C=N/NC(=O)c2ccc(Cl)cc2)cc(OC)c1OC,inactive,–
O=C(O)c1ccccc1NC(=S)NC(=O)c1sc2ccccc2c1Cl,inactive,–
O=C(Nc1ccccc1)Nc1ccc2ccccc2c1,"inconclusive: 2.24 µM [activator, full curve, poor fit]",–
Cc1cc(=O)[nH]c(SCC(=O)N2CCCCC2)n1,"inconclusive: 6.31 µM [activator, partial curve, poor fit]",–
CC(=O)N1c2ccccc2C(C)=CC1(C)C,inactive,–
O=C(Nc1ccc(Cl)cc1N1CCOCC1)C1CC1,"inconclusive: 3.16 µM [activator, single point]",–
COc1cc(C(NC=O)C(=O)Nc2c(C)cccc2C)ccc1O (stereo not given),inactive,–
Cc1noc(/C=C/c2cccs2)c1S(=O)(=O)N1CCC(C(=O)NCCCN2CCCC(C)C2)CC1 (stereo not given),inactive,–
CC(C)[C@H](NC(=O)N1CC(=O)Nc2ccccc21)C(=O)N1CCC(C(=O)O)CC1,"inconclusive: 17.8 µM [activator, partial curve, poor fit]",–
CCn1nc(NS(=O)(=O)c2ccc([N+](=O)[O-])cc2)c2cc3ccc(C)cc3nc21,"inconclusive: 5.01 µM [activator, single point]",–
O=C(c1cccc(Br)c1)c1coc2ccc(O)cc12,"inconclusive: 2.82 µM [activator, partial curve, poor fit]",–
C=CCOC(=O)/C(=C\c1ccccc1)NC(=O)c1ccco1,inactive,–
COc1cc(C2CC(=O)N(c3ccc(C)cc3)C(=O)C2)cc(OC)c1OC,inactive,–
O=C(OCc1nnc(-c2ccccc2Br)o1)c1ccco1,inactive,–

# — PubChem BioAssay AID624291 (National Center for Advancing Translational Sciences (NCATS), 2012)
